Earlier results, collected in US10117942B2, “Photoactivatable lipid-based nanoparticles as vehicles for dual agent delivery” (The United States of America, as represented by the …, priority 2013, dated 2018).
At least one structure is not confirmed: it was looked up by name or label, or the drawing left a doubt.

Details: cited from earlier work

Which singlet oxygen yield does the source give for `CCCCCCOC(C)c1c(C)c2cc3nc(c4c5[nH]c(cc6nc(cc1[nH]2)C(C)=C6CC)c(C)c5C(=O)C4)[C@@H](CCC(=O)O)[C@@H]3C` (stereo partly shown) [HPPH, 2-[1-hexyloxyethyl]-2-devinyl pyropheophorbide-a] here?
The singlet oxygen yield was 0.48.
